No constants are given. Whether binding was seen depends on the method and setting. In cells and extracts the contact can be indirect. A yes stands for co-enrichment or nearness to the bait. Other partners may have been found. A no says only that the protein was not detected with the bait.
target: Flag-BioT-mREST (mouse REST tagged with a biotin acceptor sequence) (mouse) (UniProt Q8VIG1); assay: affinity purification with mass spectrometry; streptavidin pull-downs of biotin-tagged REST from nuclear extracts of mouse ESCs; replicates; BirA control

By UniProt entry, the sequences of proteins in these tests, tags left out.
UniProt Q8VIG1: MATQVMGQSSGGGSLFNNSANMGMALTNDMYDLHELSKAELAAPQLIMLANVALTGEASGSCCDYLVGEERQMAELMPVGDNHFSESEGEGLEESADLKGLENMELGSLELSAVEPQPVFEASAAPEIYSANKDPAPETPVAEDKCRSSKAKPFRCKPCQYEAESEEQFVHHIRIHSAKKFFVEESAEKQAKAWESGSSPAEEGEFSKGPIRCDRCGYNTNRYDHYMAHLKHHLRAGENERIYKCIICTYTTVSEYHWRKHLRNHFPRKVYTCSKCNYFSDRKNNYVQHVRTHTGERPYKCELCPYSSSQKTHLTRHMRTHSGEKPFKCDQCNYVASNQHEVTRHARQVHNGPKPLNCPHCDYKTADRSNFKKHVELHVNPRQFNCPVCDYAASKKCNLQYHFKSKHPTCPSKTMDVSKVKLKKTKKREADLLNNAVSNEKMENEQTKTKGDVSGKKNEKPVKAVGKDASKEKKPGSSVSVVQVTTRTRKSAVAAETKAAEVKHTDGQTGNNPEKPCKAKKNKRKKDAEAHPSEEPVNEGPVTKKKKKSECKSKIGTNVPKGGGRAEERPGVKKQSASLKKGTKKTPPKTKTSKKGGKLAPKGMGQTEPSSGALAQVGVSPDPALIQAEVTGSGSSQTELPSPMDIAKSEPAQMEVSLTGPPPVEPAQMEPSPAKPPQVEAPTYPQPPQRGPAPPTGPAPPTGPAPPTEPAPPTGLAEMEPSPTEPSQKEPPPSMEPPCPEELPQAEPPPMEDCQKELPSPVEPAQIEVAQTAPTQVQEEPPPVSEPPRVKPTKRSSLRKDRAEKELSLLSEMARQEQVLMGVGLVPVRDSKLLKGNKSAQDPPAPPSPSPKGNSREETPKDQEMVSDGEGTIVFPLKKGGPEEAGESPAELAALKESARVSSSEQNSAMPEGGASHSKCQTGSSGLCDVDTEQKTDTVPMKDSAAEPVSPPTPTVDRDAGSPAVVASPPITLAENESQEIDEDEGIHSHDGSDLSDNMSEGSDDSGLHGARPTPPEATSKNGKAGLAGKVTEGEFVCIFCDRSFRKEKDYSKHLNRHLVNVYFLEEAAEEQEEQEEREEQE
UniProt Q921E6: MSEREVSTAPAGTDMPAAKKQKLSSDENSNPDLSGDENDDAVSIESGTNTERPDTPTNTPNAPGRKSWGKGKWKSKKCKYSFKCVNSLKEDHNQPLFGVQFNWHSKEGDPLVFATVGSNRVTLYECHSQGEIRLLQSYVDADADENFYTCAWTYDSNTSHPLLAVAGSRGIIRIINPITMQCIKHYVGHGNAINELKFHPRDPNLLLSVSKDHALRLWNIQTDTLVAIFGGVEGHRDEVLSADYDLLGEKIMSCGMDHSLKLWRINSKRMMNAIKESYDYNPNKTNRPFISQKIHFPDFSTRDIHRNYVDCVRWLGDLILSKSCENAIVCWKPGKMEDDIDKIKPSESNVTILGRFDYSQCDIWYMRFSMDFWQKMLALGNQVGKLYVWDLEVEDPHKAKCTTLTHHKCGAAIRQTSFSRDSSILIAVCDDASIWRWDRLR
UniProt Q80U70: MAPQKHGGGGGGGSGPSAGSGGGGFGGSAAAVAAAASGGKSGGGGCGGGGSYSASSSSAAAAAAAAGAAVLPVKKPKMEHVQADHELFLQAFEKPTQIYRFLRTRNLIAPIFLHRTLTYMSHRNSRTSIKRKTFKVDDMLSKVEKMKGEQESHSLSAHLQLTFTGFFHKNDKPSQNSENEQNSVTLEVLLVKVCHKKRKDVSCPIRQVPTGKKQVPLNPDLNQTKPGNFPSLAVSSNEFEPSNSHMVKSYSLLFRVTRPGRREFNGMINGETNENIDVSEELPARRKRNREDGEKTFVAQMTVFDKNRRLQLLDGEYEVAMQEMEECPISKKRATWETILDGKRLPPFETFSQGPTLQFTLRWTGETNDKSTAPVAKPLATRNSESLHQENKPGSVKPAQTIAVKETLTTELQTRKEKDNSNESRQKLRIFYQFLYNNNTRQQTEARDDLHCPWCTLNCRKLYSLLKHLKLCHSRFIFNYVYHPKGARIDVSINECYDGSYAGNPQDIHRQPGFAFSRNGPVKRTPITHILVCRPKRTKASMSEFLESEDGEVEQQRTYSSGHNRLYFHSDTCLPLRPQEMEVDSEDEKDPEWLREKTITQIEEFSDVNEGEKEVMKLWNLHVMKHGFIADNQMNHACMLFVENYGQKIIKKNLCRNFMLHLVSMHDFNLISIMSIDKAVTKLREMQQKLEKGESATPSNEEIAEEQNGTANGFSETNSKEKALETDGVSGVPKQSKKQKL
UniProt Q8K019: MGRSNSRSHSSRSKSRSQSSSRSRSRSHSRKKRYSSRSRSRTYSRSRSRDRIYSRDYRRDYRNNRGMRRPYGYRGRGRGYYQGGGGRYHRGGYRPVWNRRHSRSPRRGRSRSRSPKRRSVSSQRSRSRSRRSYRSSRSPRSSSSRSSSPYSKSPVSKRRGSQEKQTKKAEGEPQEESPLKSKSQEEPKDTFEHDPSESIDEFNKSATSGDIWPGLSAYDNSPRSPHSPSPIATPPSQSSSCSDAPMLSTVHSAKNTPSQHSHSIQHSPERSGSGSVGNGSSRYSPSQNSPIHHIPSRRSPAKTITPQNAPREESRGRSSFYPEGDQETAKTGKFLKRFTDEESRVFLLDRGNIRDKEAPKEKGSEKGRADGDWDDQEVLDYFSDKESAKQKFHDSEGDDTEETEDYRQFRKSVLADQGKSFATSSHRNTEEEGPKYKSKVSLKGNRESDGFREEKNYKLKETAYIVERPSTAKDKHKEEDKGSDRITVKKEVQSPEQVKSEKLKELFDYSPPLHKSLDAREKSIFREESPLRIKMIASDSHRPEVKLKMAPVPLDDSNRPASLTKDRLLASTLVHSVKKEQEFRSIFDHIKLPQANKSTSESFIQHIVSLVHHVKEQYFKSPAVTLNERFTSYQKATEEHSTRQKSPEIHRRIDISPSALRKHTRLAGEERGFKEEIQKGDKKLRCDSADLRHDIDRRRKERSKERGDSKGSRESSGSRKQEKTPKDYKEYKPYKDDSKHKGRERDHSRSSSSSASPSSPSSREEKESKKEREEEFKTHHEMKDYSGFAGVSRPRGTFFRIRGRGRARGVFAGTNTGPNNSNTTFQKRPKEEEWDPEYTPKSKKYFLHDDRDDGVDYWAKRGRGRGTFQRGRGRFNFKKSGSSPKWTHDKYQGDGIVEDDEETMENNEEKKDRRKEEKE
UniProt P16381: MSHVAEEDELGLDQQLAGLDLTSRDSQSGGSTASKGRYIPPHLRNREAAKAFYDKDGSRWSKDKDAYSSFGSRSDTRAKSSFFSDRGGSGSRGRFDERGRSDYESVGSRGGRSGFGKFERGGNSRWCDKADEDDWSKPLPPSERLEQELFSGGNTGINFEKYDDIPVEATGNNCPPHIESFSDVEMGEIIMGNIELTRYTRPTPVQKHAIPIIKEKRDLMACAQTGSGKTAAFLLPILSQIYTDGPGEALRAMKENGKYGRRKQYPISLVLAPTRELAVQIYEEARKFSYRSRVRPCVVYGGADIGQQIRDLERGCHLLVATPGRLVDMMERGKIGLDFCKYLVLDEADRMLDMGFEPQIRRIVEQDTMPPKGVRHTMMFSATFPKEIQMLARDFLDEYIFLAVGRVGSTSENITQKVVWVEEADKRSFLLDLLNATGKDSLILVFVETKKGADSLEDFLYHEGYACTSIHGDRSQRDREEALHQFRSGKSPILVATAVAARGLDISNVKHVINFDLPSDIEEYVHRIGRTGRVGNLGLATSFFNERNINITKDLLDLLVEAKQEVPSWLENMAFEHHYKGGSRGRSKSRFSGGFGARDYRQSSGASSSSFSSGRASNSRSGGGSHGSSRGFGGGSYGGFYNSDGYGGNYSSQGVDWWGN
UniProt Q9D0D4: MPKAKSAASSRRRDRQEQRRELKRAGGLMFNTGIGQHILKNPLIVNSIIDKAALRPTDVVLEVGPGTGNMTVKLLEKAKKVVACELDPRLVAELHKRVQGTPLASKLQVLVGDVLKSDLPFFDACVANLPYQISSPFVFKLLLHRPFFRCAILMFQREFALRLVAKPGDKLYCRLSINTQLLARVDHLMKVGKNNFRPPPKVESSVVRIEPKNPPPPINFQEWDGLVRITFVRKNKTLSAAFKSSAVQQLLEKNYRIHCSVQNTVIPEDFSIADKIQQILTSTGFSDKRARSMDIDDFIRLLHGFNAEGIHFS
UniProt Q9Z148: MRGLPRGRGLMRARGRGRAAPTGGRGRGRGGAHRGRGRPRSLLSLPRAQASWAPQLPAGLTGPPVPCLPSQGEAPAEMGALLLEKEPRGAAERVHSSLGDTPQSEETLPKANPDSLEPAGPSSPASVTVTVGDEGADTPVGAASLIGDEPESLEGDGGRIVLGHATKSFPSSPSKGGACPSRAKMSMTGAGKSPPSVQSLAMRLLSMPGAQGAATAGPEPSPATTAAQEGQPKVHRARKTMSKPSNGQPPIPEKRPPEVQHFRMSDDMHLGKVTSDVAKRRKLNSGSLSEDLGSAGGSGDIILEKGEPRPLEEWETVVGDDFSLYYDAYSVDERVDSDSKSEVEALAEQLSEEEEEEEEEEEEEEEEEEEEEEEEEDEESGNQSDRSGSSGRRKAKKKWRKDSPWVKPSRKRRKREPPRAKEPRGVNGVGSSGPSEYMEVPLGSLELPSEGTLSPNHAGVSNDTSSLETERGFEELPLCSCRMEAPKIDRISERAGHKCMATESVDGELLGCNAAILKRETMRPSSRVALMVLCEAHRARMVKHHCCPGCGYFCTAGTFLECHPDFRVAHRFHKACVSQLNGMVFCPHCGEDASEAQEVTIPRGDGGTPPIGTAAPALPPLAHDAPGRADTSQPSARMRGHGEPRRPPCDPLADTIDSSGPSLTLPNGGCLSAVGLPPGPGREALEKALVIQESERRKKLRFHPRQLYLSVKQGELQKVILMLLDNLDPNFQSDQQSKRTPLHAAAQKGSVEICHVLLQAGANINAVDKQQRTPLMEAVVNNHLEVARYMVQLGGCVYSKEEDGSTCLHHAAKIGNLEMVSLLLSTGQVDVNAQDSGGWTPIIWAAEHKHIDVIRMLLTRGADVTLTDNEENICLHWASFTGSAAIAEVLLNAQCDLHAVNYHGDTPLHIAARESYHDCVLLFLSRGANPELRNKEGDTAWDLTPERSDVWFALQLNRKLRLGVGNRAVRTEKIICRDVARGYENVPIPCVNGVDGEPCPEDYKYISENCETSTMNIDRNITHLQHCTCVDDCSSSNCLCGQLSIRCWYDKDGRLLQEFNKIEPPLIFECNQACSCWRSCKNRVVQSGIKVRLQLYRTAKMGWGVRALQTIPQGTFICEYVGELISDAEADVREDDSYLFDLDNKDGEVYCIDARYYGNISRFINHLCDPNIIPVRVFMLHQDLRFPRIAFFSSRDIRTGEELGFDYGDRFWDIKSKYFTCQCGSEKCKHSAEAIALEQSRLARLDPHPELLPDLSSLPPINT
UniProt O09106: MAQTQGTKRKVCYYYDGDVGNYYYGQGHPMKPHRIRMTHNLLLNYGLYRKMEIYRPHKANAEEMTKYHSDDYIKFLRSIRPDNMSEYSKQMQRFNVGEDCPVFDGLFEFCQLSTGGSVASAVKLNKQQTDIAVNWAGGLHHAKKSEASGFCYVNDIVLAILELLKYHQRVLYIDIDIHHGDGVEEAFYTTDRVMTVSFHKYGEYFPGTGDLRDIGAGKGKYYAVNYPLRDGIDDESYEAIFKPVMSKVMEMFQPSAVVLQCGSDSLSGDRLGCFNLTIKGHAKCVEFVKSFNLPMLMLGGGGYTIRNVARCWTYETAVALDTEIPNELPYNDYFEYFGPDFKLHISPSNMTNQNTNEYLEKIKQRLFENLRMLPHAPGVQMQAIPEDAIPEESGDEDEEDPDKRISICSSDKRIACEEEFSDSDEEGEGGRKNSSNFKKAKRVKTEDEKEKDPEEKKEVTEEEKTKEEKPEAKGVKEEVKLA
UniProt P70288: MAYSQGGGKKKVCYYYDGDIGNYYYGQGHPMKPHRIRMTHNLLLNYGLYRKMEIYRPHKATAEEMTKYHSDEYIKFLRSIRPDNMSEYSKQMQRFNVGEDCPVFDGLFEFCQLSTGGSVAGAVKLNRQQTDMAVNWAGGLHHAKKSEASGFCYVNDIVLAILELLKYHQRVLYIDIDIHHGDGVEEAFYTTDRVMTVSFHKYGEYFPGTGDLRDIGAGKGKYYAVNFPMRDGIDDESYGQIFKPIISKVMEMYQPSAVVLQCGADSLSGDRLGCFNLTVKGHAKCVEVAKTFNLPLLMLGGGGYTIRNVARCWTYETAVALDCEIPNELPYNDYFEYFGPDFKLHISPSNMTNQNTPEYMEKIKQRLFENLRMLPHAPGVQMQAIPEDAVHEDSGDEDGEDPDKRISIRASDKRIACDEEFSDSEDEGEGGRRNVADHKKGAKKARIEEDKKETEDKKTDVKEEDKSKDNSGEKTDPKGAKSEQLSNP

With Eed (from UniProt Q921E6 1-441) as the substance, how does the binding read?
Its binding is “no binding”.

How did the binding turn out when Suz12 (from UniProt Q80U70 1-741) was run?
Its binding is “binds”.

target: Flag-BioT-mREST (mouse REST tagged with a biotin acceptor sequence) (mouse) (UniProt Q8VIG1); assay: affinity purification with mass spectrometry; biotin-tagged REST captured on streptavidin M-280 magnetic beads from cleared whole-cell lysate of mouse ESCs (clone #60), 4°C, 3 hr, 50 mM Tris-Cl pH 7.5, 150 mM NaCl, 0.5% Triton X-100, 0.5 mM EDTA, 10% glycerol; MudPIT on three independent purifications; parental BirA-J1 cells as control

Bclafi (from UniProt Q8K019 1-919) was tested. Which binding did it give?
The binding was “binds”.

D1Pas1 (from UniProt P16381 1-660) was tested. Which binding did it give?
Its binding is “binds”.

With Dimti (from UniProt Q9D0D4 1-313) as the substance, how does the binding read?
The binding was “binds”.

With “Ehmt2/G9a (from UniProt Q9Z148 1-1263) (enzyme)” as the substance, how does the binding read?
The binding was “binds”.

For “HDAC1 (from UniProt O09106 1-482) (enzyme)”, which binding is on record?
The binding was “binds”.

Which binding does the source give for “HDAC2 (from UniProt P70288 1-488) (enzyme)” here?
The binding was “binds”.

Which binding does the source give for Mdc1 (from UniProt Q5PSV9 1-1707) here?
The binding was “binds”.

With Pdcd11 (from UniProt Q6NS46 1-1862) as the substance, how does the binding read?
The binding was “binds”.

For “SMCX (Jarid1C) (from UniProt P41230 1-1554) (enzyme)”, which binding is on record?
The binding was “no binding”.

Which binding does the source give for Smarca5 (from UniProt Q91ZW3 1-1051) here?
Its binding is “binds”.

How did the binding turn out when Ssrpi (from UniProt Q08943 1-708) was run?
Its binding is “binds”.

Wiz (from UniProt O88286 1-1684) was tested. Which binding did it give?
Its binding is “binds”.

— paper PMC4371837
